Results taken from the supplement of paper PMC10849652.
Some of the results follow.

Sequences of proteins named here, by UniProt entry; tags and fusion partners are left off. A change or cut given only in a name is not applied to a line headed by its entry.
UniProt Q6V0I7: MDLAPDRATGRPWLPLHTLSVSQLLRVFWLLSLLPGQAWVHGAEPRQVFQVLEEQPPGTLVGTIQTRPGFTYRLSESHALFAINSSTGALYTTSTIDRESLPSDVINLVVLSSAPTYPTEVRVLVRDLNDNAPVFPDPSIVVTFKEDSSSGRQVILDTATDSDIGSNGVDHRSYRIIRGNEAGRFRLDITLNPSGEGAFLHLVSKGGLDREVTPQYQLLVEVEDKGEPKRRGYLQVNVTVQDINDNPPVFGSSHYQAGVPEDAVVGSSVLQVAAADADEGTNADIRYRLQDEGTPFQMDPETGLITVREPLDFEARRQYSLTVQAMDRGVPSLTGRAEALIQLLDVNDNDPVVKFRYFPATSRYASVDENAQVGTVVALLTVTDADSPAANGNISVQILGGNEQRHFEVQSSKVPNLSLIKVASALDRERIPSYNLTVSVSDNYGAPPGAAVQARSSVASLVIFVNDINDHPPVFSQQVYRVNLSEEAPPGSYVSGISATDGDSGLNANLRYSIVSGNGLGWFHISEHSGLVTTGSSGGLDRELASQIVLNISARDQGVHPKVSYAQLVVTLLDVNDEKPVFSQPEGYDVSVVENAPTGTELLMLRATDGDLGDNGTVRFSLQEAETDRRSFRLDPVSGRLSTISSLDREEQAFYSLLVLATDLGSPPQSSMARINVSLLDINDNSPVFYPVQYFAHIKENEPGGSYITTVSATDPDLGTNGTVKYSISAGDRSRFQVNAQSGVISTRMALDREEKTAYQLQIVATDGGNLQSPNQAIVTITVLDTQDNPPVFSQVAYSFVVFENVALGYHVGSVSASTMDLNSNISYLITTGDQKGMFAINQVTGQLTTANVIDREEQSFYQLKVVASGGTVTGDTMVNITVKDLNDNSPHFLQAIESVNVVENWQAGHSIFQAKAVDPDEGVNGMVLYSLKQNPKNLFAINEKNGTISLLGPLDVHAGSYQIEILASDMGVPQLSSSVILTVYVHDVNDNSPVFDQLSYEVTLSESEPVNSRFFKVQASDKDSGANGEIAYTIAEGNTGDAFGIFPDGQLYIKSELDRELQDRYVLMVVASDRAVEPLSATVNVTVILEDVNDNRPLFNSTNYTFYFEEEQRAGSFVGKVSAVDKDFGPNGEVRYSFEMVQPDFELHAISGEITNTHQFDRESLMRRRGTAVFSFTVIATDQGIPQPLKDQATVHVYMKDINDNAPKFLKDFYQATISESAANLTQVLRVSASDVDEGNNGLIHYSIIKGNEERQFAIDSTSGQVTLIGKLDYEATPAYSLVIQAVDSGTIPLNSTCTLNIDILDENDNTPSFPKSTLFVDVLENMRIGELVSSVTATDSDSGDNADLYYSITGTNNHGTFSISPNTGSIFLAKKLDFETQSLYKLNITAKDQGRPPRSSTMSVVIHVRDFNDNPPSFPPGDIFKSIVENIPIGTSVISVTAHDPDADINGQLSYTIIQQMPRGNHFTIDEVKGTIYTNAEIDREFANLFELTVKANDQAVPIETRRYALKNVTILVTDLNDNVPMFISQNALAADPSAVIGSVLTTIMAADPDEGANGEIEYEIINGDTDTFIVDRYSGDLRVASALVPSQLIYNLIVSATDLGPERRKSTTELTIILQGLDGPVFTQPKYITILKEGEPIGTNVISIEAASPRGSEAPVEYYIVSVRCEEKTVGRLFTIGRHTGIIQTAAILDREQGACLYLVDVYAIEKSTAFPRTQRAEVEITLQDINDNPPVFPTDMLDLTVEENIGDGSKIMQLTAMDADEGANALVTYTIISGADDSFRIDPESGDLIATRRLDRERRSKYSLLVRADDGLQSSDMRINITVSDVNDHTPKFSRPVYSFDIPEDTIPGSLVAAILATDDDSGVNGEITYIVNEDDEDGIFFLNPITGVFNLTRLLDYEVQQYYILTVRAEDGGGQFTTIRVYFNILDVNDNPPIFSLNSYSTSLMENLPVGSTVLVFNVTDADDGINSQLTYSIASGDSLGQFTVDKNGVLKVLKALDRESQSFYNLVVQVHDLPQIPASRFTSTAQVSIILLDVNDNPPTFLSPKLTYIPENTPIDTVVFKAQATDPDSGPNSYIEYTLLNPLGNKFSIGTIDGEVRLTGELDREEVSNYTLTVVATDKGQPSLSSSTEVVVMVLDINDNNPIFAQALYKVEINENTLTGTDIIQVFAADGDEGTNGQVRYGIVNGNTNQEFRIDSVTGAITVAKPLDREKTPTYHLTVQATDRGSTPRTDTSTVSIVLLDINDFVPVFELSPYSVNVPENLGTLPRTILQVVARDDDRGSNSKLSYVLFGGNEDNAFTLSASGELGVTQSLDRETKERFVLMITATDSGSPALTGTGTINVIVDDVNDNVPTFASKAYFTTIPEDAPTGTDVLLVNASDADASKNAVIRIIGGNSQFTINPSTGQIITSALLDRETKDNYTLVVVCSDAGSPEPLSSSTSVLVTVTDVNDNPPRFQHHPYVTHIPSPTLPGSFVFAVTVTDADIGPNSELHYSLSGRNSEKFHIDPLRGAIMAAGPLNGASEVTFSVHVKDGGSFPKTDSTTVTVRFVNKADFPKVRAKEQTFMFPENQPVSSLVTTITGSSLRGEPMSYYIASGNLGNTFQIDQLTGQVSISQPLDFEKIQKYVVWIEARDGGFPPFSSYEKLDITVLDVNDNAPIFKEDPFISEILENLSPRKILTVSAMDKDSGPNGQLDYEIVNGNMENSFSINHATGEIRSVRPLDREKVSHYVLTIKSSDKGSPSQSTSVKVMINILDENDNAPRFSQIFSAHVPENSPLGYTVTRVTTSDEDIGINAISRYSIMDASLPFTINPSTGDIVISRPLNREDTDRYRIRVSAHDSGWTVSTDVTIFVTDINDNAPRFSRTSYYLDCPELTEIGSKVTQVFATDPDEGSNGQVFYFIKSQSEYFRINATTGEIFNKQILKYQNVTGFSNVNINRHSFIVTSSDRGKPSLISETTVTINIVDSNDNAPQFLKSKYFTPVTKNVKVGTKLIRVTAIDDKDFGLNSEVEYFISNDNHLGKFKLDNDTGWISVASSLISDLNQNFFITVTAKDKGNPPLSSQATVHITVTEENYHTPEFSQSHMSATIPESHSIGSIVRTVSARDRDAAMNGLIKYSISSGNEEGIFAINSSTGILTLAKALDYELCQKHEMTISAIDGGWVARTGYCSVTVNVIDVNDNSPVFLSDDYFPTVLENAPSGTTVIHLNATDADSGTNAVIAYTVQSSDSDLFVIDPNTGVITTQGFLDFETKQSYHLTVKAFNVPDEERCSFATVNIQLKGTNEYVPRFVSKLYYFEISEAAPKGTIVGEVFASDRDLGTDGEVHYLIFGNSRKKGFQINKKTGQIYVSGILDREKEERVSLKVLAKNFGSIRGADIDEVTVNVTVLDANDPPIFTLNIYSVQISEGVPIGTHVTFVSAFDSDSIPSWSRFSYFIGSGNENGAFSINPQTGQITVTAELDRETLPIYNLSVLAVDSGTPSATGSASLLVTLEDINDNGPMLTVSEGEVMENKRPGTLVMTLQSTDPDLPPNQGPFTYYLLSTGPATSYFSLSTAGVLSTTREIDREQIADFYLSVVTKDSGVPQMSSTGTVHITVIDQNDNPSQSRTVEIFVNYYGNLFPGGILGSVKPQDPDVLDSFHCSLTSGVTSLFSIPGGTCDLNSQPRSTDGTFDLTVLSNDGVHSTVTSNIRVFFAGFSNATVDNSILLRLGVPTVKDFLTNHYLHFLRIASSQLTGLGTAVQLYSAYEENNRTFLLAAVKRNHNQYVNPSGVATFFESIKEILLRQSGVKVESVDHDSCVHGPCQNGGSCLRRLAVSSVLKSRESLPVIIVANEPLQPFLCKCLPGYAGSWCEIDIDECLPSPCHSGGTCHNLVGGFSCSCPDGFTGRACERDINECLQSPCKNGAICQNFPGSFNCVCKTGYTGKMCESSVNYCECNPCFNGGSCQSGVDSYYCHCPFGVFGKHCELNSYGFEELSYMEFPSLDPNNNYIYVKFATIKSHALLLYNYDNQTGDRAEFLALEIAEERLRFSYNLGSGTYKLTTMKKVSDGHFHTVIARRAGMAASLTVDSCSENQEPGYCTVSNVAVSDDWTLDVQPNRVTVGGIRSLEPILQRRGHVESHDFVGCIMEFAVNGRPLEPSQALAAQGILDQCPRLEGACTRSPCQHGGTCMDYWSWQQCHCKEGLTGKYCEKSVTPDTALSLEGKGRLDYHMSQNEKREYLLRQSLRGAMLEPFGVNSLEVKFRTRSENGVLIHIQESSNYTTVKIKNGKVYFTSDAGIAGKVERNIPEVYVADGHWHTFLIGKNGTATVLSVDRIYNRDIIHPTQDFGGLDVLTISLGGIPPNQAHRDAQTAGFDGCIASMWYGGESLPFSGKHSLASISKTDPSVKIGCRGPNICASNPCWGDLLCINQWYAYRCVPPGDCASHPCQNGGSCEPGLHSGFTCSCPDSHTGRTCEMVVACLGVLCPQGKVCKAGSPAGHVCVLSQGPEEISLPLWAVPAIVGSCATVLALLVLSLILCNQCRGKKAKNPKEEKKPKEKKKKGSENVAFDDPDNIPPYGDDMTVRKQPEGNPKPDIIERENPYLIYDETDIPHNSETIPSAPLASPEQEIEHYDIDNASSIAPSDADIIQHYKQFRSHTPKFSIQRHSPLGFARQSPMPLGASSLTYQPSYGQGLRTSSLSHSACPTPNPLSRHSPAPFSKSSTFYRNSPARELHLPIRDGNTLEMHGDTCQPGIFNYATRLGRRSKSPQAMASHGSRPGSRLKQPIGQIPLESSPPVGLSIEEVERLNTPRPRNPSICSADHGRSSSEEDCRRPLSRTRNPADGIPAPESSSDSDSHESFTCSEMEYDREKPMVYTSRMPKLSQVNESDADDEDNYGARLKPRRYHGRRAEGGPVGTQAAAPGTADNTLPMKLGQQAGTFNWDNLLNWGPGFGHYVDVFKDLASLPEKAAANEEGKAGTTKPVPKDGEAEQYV
UniProt Q9H4M3: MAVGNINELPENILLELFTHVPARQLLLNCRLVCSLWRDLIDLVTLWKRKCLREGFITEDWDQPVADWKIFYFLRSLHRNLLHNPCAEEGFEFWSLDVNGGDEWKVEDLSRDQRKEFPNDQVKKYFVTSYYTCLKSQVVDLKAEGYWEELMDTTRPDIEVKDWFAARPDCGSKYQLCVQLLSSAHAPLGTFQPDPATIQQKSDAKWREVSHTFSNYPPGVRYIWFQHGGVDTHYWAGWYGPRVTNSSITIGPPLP
UniProt Q5XKK7: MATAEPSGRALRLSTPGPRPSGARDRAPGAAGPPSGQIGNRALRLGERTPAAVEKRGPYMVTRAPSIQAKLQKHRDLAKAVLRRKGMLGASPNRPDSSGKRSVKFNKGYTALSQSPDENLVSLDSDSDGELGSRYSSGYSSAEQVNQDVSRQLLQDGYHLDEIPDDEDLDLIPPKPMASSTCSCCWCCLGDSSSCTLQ
UniProt P16591: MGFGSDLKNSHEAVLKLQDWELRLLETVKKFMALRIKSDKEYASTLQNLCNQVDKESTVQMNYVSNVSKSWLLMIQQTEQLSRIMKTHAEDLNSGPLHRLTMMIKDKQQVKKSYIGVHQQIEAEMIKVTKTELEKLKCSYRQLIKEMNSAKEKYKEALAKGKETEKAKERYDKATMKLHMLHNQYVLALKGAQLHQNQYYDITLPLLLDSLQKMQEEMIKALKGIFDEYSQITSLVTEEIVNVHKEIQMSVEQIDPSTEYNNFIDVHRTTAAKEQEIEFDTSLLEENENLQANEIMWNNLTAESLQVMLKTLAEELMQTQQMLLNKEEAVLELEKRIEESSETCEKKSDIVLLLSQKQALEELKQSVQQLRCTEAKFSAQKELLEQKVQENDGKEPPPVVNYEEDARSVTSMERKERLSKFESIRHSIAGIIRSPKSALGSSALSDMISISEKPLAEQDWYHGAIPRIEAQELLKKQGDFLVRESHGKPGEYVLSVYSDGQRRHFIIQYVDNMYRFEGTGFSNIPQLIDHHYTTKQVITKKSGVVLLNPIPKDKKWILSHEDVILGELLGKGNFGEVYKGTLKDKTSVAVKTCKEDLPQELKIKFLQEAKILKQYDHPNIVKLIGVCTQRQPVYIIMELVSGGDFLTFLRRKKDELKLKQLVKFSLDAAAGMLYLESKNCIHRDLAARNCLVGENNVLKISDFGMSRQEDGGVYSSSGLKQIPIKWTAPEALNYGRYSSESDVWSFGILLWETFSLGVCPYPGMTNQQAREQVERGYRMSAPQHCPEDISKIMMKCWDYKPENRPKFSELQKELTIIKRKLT
UniProt Q8TAV0: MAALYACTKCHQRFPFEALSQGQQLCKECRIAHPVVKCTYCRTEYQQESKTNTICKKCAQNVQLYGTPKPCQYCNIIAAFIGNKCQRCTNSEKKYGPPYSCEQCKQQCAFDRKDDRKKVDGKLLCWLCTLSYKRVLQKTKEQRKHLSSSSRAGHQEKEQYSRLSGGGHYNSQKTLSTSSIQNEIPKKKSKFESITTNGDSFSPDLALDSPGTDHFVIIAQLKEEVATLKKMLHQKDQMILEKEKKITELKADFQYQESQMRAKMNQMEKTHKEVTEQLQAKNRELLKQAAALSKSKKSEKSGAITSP

compound: COC1=CC=C(C=C1)CN2C=CC3=C2C=C(C=C3)C(=O)NO; test: log2 fold change, soluble protein after heating vs DMSO (PISA); higher = thermal stabilisation; K562 cells, 10 uM, 30 min; active = over 0.2 and 3.5 SD of the protein, either way, in both replicates (recomputed)
Summary of the method: (§1)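 K562 cells at 2×10^6 cells/mL were treated for 30 min with 10 μM compound, and aliquots were heated for 3 min over 48°C-58°C before pooling. Extraction used PBS with 0.5% NP-40 at 4°C, and soluble protein was the supernatant after 21,000xg for 90 min, measured by TMTpro 16plex LC-MS/MS with channel sums equalised. Thermal stability values, relative to control samples and from duplicates, are log2 fold changes.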

log2 fold change, inactive:
FAM53B (UniProt Q14153) -0.001
FBF1 isoform 6 (UniProt Q8TES7) -0.017
FAXDC2 (UniProt Q96IV6) 0.169
FAT2 (UniProt Q9NYQ8) 0.247

compound: CON(C)C(=O)N1N=C(c2cc(F)ccc2F)S[C@@]1(CCCN)c1ccccc1 [filanesib]; test: as above
Summary of the method: as §1

log2 fold change, inactive:
FBXL8 (UniProt Q96CD0) 0.024
FMNL1 isoform 3 (UniProt O95466) 0.433
FAM53C (UniProt Q9NYF3) 0.023
FASTKD5 (UniProt Q7L8L6) -0.323
FGB (UniProt P02675) 0.063
FAT4 (UniProt Q6V0I7) 0.065
FAM83A (UniProt Q86UY5) -0.018
FBXO44 (UniProt Q9H4M3) -0.014
FAM219B (UniProt Q5XKK7) -0.3
FKRP (UniProt Q9H9S5) -0.066
FLII isoform 2 (UniProt Q13045) -0.167
FBXO11 isoform 5 (UniProt Q86XK2) -0.007
FHL1 isoform 4 (UniProt Q13642) 0.012
FKBP10 (UniProt Q96AY3) 0.075
FER (UniProt P16591) 0.223
FAM76A isoform 3 (UniProt Q8TAV0) -0.029
FKBP14 (UniProt Q9NWM8) 0.038
FAM86B2 (UniProt P0C5J1) 0.004
FBXL4 (UniProt Q9UKA2) -0.165

7 neighbouring records out of the list so far, quoted:
log2 fold change, inactive:
FAM53C (UniProt Q9NYF3) 0.023
FASTKD5 (UniProt Q7L8L6) -0.323
FGB (UniProt P02675) 0.063
FAT4 (UniProt Q6V0I7) 0.065
FAM83A (UniProt Q86UY5) -0.018
FBXO44 (UniProt Q9H4M3) -0.014
FAM219B (UniProt Q5XKK7) -0.3
